# Data as given in PubChem BioAssay AID328 (DTP/NCI, 2004).
# The list shows only some results of the screen, not a fair sample: it gathers tests that were run many times, whatever their T/C, doses with no T/C, and many T/C values between a quarter and a half above the control. Further doses and runs are listed elsewhere. T/C: endpoint of the treated group in % of that of the vehicle group. Some doses have a count of surviving animals in place of a T/C: the source holds a T/C of zero for them, seemingly a mark for toxic or unscored doses. Some doses without a T/C left all or most animals alive at the check, yet need not have been tolerated: the source hardly ever lists a survival T/C far under the control, and the zero likely stands for such cases as well. Counts of survivors are from the toxicity check (mostly the fifth day) where no day follows; animals may have died later. Schedule codes are those of the source, read here as Q, the interval in days (D) or hours (H), X, the number of doses. Where survival is the endpoint, the PubChem record calls one and a half times the control and up active, and a quarter to a half above the control has no call in these data; cut-offs in other NCI protocols can differ. Counts like (3×) give the number of equal values in this list. Some entries were tested several times; their values stand side by side, smallest first. Some T/C values are followed by the survivors on the day toxicity was checked, most often the fifth; where none is given, no animal had died by that day. Non-standard residues stand in square brackets, D forms with d. Residues, ends and D or L forms follow the SMILES beside them. *: point of attachment. NMeY = CN[CH](Cc1ccc(O)cc1)C(=O)O; Bn = c1ccc(C*)cc1
# System: BDF1 mice, P388 leukemia ip, median survival T/C
# Test: NCI In Vivo Anticancer Drug Screen. Data for tumor model P388 Leukemia (intraperitoneal) in B6D2F1 (BDF1) mice
# Settings: T/C endpoint: median survival time, higher T/C = longer survival
# Summary of the method: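 In tumour-bearing mice, survival after compound treatment is set against the vehicle group and given as a quotient.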
# [1] = dose: 100.0 mg/kg/injection, schedule: Q04DX003 (ip), vehicle: saline with Tween-80
# [2] = dose: 50.0 mg/kg/injection, schedule: Q04DX003 (ip), vehicle: saline
# [3] = dose: 50.0 mg/kg/injection, schedule: Q01DX005 (ip), vehicle: saline with Tween-80
# [4] = dose: 200.0 mg/kg/injection, schedule: Q01DX005 (ip), vehicle: saline with Tween-80
# [5] = dose: 400.0 mg/kg/injection, schedule: Q04DX003 (ip), vehicle: saline with Tween-80
# [6] = dose: 25.0 mg/kg/injection, schedule: Q01DX009 (ip), vehicle: saline
# [7] = dose: 100.0 mg/kg/injection, schedule: Q01DX009 (ip), vehicle: saline
# [8] = dose: 400.0 mg/kg/injection, schedule: Q04DX003 (ip), vehicle: saline
# [9] = dose: 200.0 mg/kg/injection, schedule: Q04DX003 (ip), vehicle: saline with Tween-80
# [10] = dose: 150.0 mg/kg/injection, schedule: Q01DX009 (ip), vehicle: saline with Tween-80
smiles,measurement,setting,value
COc1cc(C(=O)NCC2(C)OC3(OC(=O)C2O)C(=O)N/C(=C(\C=O)C(C)=O)OC3C(O)C2CN2C(C)=O)c2cccc(C)c2c1 (stereo not drawn),survivor count,"dose: 0.2 mg/kg/injection, schedule: Q01DX010 (ip), vehicle: alkali diluted with saline",6 of 6
same,survivor count,"dose: 0.4 mg/kg/injection, schedule: Q01DX010 (ip), vehicle: alkali diluted with saline",0 of 6
same,survivor count,"dose: 0.8 mg/kg/injection, schedule: Q01DX010 (ip), vehicle: alkali diluted with saline",0 of 6
same,survivor count,"dose: 1.6 mg/kg/injection, schedule: Q01DX010 (ip), vehicle: alkali diluted with saline",0 of 6
same,T/C,"dose: 6.3 micrograms/kg/injection, schedule: Q01DX010 (ip), vehicle: other",135 % of control
COc1cc(NC(=O)CN(CCCl)CCCl)cc(OC)c1OC,T/C,"dose: 15.0 mg/kg/injection, schedule: Q04DX003 (ip), vehicle: Klucel (hydroxypropylcellulose) (HPC)",135 % of control
same,T/C,"dose: 30.0 mg/kg/injection, schedule: Q04DX003 (ip), vehicle: Klucel (hydroxypropylcellulose) (HPC)",125 % of control
same,T/C,"dose: 132.0 mg/kg/injection, schedule: Q04DX003 (ip), vehicle: Klucel (hydroxypropylcellulose) (HPC)",140 % of control
O=C1NC(c2ccccc2Cl)Nc2ccccc21 (stereo not drawn),T/C,"dose: 400.0 mg/kg/injection, schedule: Q01DX009 (ip), vehicle: Klucel (hydroxypropylcellulose) (HPC)",135 % of control (2×)
C[N+](C)(C)Cc1ccccc1,survivor count,[1],0 of 6
CS(=O)(=O)OCCCCCCCCCOS(C)(=O)=O,T/C,"dose: 75.0 mg/kg/injection, schedule: Q04DX003 (ip), vehicle: saline with Tween-80",127 % of control
CCCCCC(C)(C)O,survivor count,[2],5 of 6
Nc1nc(N)c2c(ccc3c2ccn3Cc2cccc([N+](=O)[O-])c2)n1,survivor count,[3],4 of 5
same,survivor count,"dose: 100.0 mg/kg/injection, schedule: Q01DX005 (ip), vehicle: saline with Tween-80",0 of 5
same,survivor count,[4],0 of 5
CCC[CH2][Sn]1([CH2]CCC)[N](S(=O)(=O)c2ccc(C)cc2)c2ccccc2[N]1S(=O)(=O)c1ccc(C)cc1,T/C,"dose: 3.0 mg/kg/injection, schedule: Q01DX009 (ip), vehicle: Klucel (hydroxypropylcellulose) (HPC)",127 and 140 % of control
same,T/C,"dose: 6.0 mg/kg/injection, schedule: Q01DX009 (ip), vehicle: Klucel (hydroxypropylcellulose) (HPC)",137 % of control
same,survivor count,"dose: 12.0 mg/kg/injection, schedule: Q01DX009 (ip), vehicle: Klucel (hydroxypropylcellulose) (HPC)",6 of 6
same,survivor count,"dose: 24.0 mg/kg/injection, schedule: Q01DX009 (ip), vehicle: Klucel (hydroxypropylcellulose) (HPC)",4 of 6
C=C1C(=O)OC2CC(C)CCC/C(CO)=C/C(OC(=O)/C(=C/CO)CO)C12 (stereo not drawn),T/C,"dose: 14.0 mg/kg/injection, schedule: Q01DX009 (ip), vehicle: saline",125 % of control
CCCCCCCCCCSc1ncnc2nc[nH]c12,survivor count,"dose: 100.0 mg/kg/injection, schedule: Q01DX009 (ip), vehicle: saline with Tween-80",6 of 6
same,survivor count,[5],6 of 6
CCOC(=O)CN1C=C(C(=O)c2cc3ccccc3[nH]2)CCC1,survivor count,[6],6 of 6
same,survivor count,"dose: 50.0 mg/kg/injection, schedule: Q01DX009 (ip), vehicle: saline",6 of 6
same,survivor count,[7],6 of 6
CCc1cc2c(cc1C(=O)CBr)C(C)(C)CCC2(C)C,T/C,"dose: 8.75 mg/kg/injection, schedule: Q04DX003 (ip), vehicle: Klucel (hydroxypropylcellulose) (HPC)",130 % of control
same,T/C,"dose: 17.5 mg/kg/injection, schedule: Q04DX003 (ip), vehicle: Klucel (hydroxypropylcellulose) (HPC)",135 % of control
same,survivor count,"dose: 75.0 mg/kg/injection, schedule: Q04DX003 (ip), vehicle: Klucel (hydroxypropylcellulose) (HPC)",6 of 6
same,survivor count,"dose: 115.0 mg/kg/injection, schedule: Q04DX003 (ip), vehicle: Klucel (hydroxypropylcellulose) (HPC)",6 of 6
same,survivor count,"dose: 170.0 mg/kg/injection, schedule: Q04DX003 (ip), vehicle: Klucel (hydroxypropylcellulose) (HPC)",6 of 6
CNC(Cc1ccc(OCc2ccccc2)cc1)C(=O)NC(CC(C)C)C(=O)OC (stereo not drawn) (H-[NMeY](Bn)-Leu-OMe; configuration not given here),survivor count,[8],2 of 6
CSc1sc2ccccc2[n+]1C,survivor count,"dose: 200.0 mg/kg/injection, schedule: Q01DX009 (ip), vehicle: saline",1 of 6
CCOc1cc(C=Nc2cc(Cl)c(O)c(Cl)c2)ccc1N(CCCl)CCCl,T/C,"dose: 11.0 mg/kg/injection, schedule: Q04DX003 (ip), vehicle: saline with Tween-80",129 % of control
same,survivor count,[1],5 of 6
same,survivor count,[9],0 of 6
same,survivor count,[5],0 of 6
CCCCN1C/C(=C\c2ccc(Br)cc2)C(=O)/C(=C/c2ccc(Br)cc2)C1,survivor count,"dose: 25.0 mg/kg/injection, schedule: Q01DX005 (ip), vehicle: saline with Tween-80",6 of 6
COC(=O)CN(c1c(C)cc(C)c(N)c1C)S(=O)(=O)c1ccccc1,survivor count,"dose: 200.0 mg/kg/injection, schedule: Q01DX001 (ip), vehicle: Klucel (hydroxypropylcellulose) (HPC)",6 of 6
Cc1ccc(C(=O)O)cc1S(=O)(=O)Cl,survivor count,[9],3 of 6
same,survivor count,"dose: 400.0 mg/kg/injection, schedule: Q01DX009 (ip), vehicle: saline with Tween-80",2 of 6
same,survivor count,[5],0 of 6
Nc1nc(-c2cccc3ccccc23)cc2ccccc12,T/C,"dose: 50.0 mg/kg/injection, schedule: Q01DX009 (ip), vehicle: saline with Tween-80",135 % of control
same,T/C,"dose: 200.0 mg/kg/injection, schedule: Q01DX009 (ip), vehicle: saline with Tween-80",126 % of control
CCNC(=S)N/N=C\C=N/NC(=S)NCC,survivor count,[10],7 of 7
FC(F)(F)c1cccc(-c2nc3nc(Cl)c(Cl)nc3[nH]2)c1,T/C,[1],129 % of control [5 of 6 alive]
same,survivor count,[10],1 of 6
same,survivor count,[9],5 of 6
same,survivor count,"dose: 300.0 mg/kg/injection, schedule: Q04DX003 (ip), vehicle: saline with Tween-80",0 of 6
CCN(CC)CCCC(C)Nc1c2ccccc2nc2c(Cl)cccc12 (stereo not drawn),survivor count,"dose: 100.0 mg/kg/injection, schedule: Q01DX009 (ip), vehicle: saline sonified",0 of 6
CCOc1ccc(N2CC(=O)N3CCCN3C(=O)C2)cc1,survivor count,[3],4 of 5
same,survivor count,[4],5 of 5
CC(=O)OC(C)(C)/C=C/C(=O)[C@](C)(O)[C@H]1[C@H](O)C[C@@]2(C)[C@@H]3CC=C4[C@@H](C=C(O)C(=O)C4(C)C)[C@]3(C)C(=O)C[C@]12C,T/C,"dose: 4.0 mg/kg/injection, schedule: Q01DX009 (ip), vehicle: saline",135 % of control
O=C1NC(C2CC3C=CC2C3)Nc2ccccc21 (stereo not drawn),survivor count,"dose: 50.0 mg/kg/injection, schedule: Q04DX003 (ip), vehicle: Klucel (hydroxypropylcellulose) (HPC)",5 of 6
NNC(=O)C1CC1,survivor count,[6],6 of 6
same,survivor count,[7],5 of 6
OC(CN(CCCl)CCCl)C(O)C(O)C(O)CN(CCCl)CCCl (stereo not drawn),T/C,"dose: 0.09 mg/kg/injection, schedule: Q04DX003 (ip), vehicle: saline",141 % of control
same,survivor count,"dose: 1.5 mg/kg/injection, schedule: Q01DX009 (ip), vehicle: saline",6 of 6
same,survivor count,"dose: 2.25 mg/kg/injection, schedule: Q01DX009 (ip), vehicle: saline",6 of 6
same,survivor count,"dose: 3.0 mg/kg/injection, schedule: Q01DX009 (ip), vehicle: saline",6 of 6
same,T/C,"dose: 3.0 mg/kg/injection, schedule: Q04DX003 (ip), vehicle: saline",145 % of control
same,survivor count,"dose: 6.0 mg/kg/injection, schedule: Q01DX009 (ip), vehicle: saline",5 of 6
same,survivor count,"dose: 12.5 mg/kg/injection, schedule: Q04DX003 (ip), vehicle: saline",6 of 6
same,survivor count,"dose: 25.0 mg/kg/injection, schedule: Q04DX003 (ip), vehicle: saline",0 of 6
same,survivor count,[2],0 of 6
same,survivor count,"dose: 100.0 mg/kg/injection, schedule: Q04DX003 (ip), vehicle: saline",0 of 6
same,survivor count,"dose: 200.0 mg/kg/injection, schedule: Q04DX003 (ip), vehicle: saline",0 of 6
same,survivor count,[8],0 of 6
same,T/C,"dose: 90.0 micrograms/kg/injection, schedule: Q04DX003 (ip), vehicle: saline",133 % of control
